Source: PMC5974925

target: T1, SbbR-His6 (Streptomyces bingchenggensis BC04) (UniProt D7C006); test: EMSA; conditions: 0.1-0.2 uM SbbR; EMSA: 20 mM Tris base, 2 mM DTT, 5 mM MgCl2, 0.5 ug calf BSA, 5% glycerol, 20 ul, 10 ng probe, 25 C 25 min (poly[d(I-C)] 500 ng when necessary), pH not stated; recombinant protein; residues 34-239; protein details: C-terminal His6 (pET23b, NdeI/XhoI); probe letters rebuilt from the primers and the genome
T1 sequence (looked up): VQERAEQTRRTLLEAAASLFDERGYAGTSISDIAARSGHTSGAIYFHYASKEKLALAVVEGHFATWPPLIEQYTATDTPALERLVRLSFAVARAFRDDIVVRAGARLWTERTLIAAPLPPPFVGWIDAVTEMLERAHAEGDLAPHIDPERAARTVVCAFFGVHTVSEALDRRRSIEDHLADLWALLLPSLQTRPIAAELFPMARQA

Sequence	binding result
ACCAGCAGGCTCAGCAACCGCTGGCCCGCAGGGGCGATCAGCACGGACTGTCCCTCGTATCGAAGTTCGAAACTTCCCATGAGCGACAAATGGGGAAGGTGGTGCAGGCGGTACTCGTCGGAGTGCTTCTGCATTGCGCCTCCTCAGACCACGAAGAAGCCGTCGCGGGCGAAGTGGGAATCCCTGGCGCGGCAGCTCCGGCGGTCCTCGGTGAGGATTGCGCACTTCGCGTCGAAATCCGTGGTGCGCCTTTTGGCGGCTGCCACCTGGGGCTCTGCCGACGCGCGTGCCGCGCTGTATCAGTGCCGCACCTCCCATTGGAACACCGCAAGACTTTTGGCACATCTGCGCGCGGGGGTGACGTCGTGGTGACGAGCCGGTGATCCGGTTCCACCAAGCTCCTCTCAGTGACCTGGCTGGTGACCCGGCACTGGGGACGGCAAAGAGACGAGGGGAGACACCGTGTTCACGCACCGCTTCGCATCCTCACCACCGTTCTGCTGGTCTGCGCGCTTCCATTCGCACCGACGCACCAGAATTCCGACCAAGATCTACGACGGGATGCTGCTGCTTCTCGTCATTCTCGCCGTGGCACACCACTCGCCTGGCCGGGGACTTCTGCTGGCGGCCTTTCTCATGTGCCGCGTCATTGGCCGTCCCCTCGCCCATAATTGGCTGACACCTTCCACGCCCGGCCCTTCCGCGCCCGGCCTCCCGGAATACGGGCGGCACCGATGAGTGCTCCGGCGGTCACGCATCCGACCCGTACCGCAGTCCCGGACGAACGCTCCCAGGTCCTCGGAAGGCTTTGCGACCTCCGGTCCCGAGGCAGGTGGCGGTTCCGACTGGCCCTGCTCGGCCCCGCCTTCGTCGTGGCTGTGGCGT (double strand) [Psbi_08432]	binds
ATTGACCAGCGCCTTTCGGACGTACGCCTCCGGATTCTCCCCCGCGATCCGCCGCCACTTCGGCCACACCTTGGCCAGCACCGTCTGCAGCAGATCCTCGGCCAGATGCGCATCCCCGGTGAGCAGCCAGGCCACCCTCAGCAGCCGAGGCCCGCGCGCGGCGACGAACTCCTCGAAGCCGGGCGTCGCGCCCGTCACTGTCGTGTCCTCGCCATGGCGCCCCTGTCCGAACCGTGTCTTTCACACATGGTGAACGCCATGACGCCGGGACGGGGTTGCCTCAAGCCCAGAATCCGCCAACCGGCGGTCAACCAGCACCCCCGCATGGCGATTCGCACGGCCAATTGCCGAGTCAAGAGACTCGATGAAAATCAGCCACGCCAGACTTAATATCGCCAAGAATCACGGCCGACATCGTGCGCGCCAAAGCGGGCAACAAGGGGTACGCTCCTCAATCCACACCCTCAAGCGCGTGACCTGCGTCACAAAAATGTGACAGCTCTGGTCGGCGTGACGCCGCGTGTCGCAAACTCACTGCGATCTTCTGTTAGAAGAATTGCTCACGGGGAACAGCGTTACGGGGGAGCAACAGTGGGTCATCTGTCGATTCAGGTACGCGCTTCCAGATCCAGCGGGTCGCCGGTTTTGAGGCATATCGCCGCTGATATTCACTTAAGATTCAGGAAACCTGGACACCTCGCATTCCAGCACCTCTCCAGGGTGACTCTGTGAATTCCGCCGGGTATCCGCTGTCTCGGCAGCAGCAGACCGTCTGGGCGTCGCAGCAACTCCAGCCAGACGGGGACTCCTACCATGTTCCCGTGGCCTACCGCCTTTCAGGTCACATCGCCGAGAAGGAGCTCGCCGAGGCCATCCGGTCGGTGCTGGGCCGGCACCCCGTGCTGCGTGTGGCGATTCATCAATTATCGAGCGGCGAACTTCGCCAGAGCGTACGCCCCACGCCGGATCGCGTCCTGGATGTAC (double strand) [Psbi_06451]	binds
CCGCTCACGCTCGGTCATGCCACCCCACACGCCGAACTCGACGCGGTTGTCCAGCGCGTCGGCAAGGCACTCGGTGCGCACCGGACACCCGGTGCAGACCGCTTTGGCCCTGTTCTGTGCCGCGCCTTGAACAAATAGTTCATCTGGATCAGTCGTGCGACAGGCGGCCTGCGCACTCCAGTCGGTTACCCAGCCCATGCTGGCGCCGTCCTCTCCCGATTCGGAGCTCCCCCACGGCGACAAACGGCATATTCACCGTCGCCAGTTGAGGACGTTACGGAAGGCGGACAGGGTGCAACACCCCCTGCGGGCCCAATCTTGGATGGCCCGAACGGACTATGGGTACGCGGCAGATCACCCAACGGAGTGAGCTGACGACATGCGCGACTTACCGCACAAATAGGGGTAGTTCACCCACTCCAAAAGGGGTGGGACATAACACAAGACAGCAAATGGGGCAGGTCTCATCACTCACTTGAGTGAGAGGGGTGATGGTGCTCGACCGCACCGAAGTGACTGGCGTGAATCAGCGTATGCGAACAGGTGGTCCCCTGTCCGGCGATTCGGCACGTAGGCTGCCCCCATGGGTAACAAGCGTTCGGGCGGAGGTCTGTCCCCCGCTCAGCAGGCCGCGAAGTTCCTCGGCGTCAGCGTGCTCGCGGGA (double strand) [Psbi_05811]	binds
GCAACCGCCGGTACAGCTCCGCCGGGTCGGCCTGAAGCTCCTCGGTGTGCATCCGTACGGCGCCGGGGTGCGCCGGGCAGCCGGTGAGAGGCGATGGGCCGTCGACCGGCGAGGGGTGGTGCACGTTCGTCACGCTGTCAACTCCGGGGCGAGGAGGCGGGAAGTCCAGGGAGTATACGTACAGGTGAGCCGGTCGTCAGCGGCTGAACGTCCCACGACAGGTCAGCTCCAGGCCCGCCGCTCCTGGCCGCGGGGGTCGTCGAGCCGGGTCCACTCGGCGTCGATGCGCCGCCGACGAACACCGCGCGGTCCGTTCCGGAGGTGAGGGTCAGCACGGAGGAGCCGGGGGTGTGTCCGGGAGCCGCGTCCAGGCGCAGATCGGCGTCGATCTGGCGGCCGAGCAGCGGCATCAGATAGGTGGCATTGGGAAAGGTGGGGACCCAGTTCCGCCCGTCCAAATAGGTGTTCCGGCGCCGGTGTCGACGAGGATGGTCCTGCCCTCGCTGCGCGGCAGCCAGGTCTGGAGCGCGGAATTCACGATATTGGTCTCGGCATCCAGAAAATGCGGGGTCAGCCAGAGGGCACCGGCTTCCCAGACTTCCTTCGTGCTTTCCTACGAGCGGCCTCGGCGCGCGCGGTATCCGTCACGTGACTGCACCTGCGCGCACGGCCCGCACACTGGGCCCGGCGGCTTGTAGCCTGGGTGGGGCCAAGGCACGGCGGCTCCGATCGAAGAGCCATATTCCCTGGAGACTCCGTGGACGAGCACGCAGGCGGCCCCGGTGCGGTCACCGGACCGCAGCCGGAGGCGGGGAAGCCGATCGTCGGCCGGGACGCGGAGCTGGCACGCCTGTTTCG (double strand) [Psbi_00827]	binds
GCGAACGGATCGCCTCCACCAGCACCGGTACATCGGTGCACACCAACTCGACCTCTTCGGCGGGAAGTCGCGTCTGGTCCAGGATCACCAGCACGGGACCTTCCGGCGGTTCCTCCCAGCACAGGGCGAGCGCGGCGGGCGATACGTCGGCGCCCCGGTCCACTGAGTGCTGATCAGCCATTGGTCCAGTCTGCCCTCTGCGGCCCCAAGTATTGAAGGCCCCGGCGTTGGAGGCCCCAAGTATTGAAGCGCCCGCCACGCCCGACGCCCACCGTCCGGCCATGTTCACCGTGGCACGATGACTGCCAACCTGCCGCCGCCGCGCACTCGCGACAGCCCGGCGGCCGCCCTTCGCCCTTATGGGACCGACCTTACGGAGCAACGATGAATGACTCTCCGGGCTGGGCACCGCCCGGACCGTCCCCCACCGACGAACCGCGCCACCACCCCCAGCCGCCAGACGCCCCGGCCGACCAGGCCGCACAGGGCCAGGGCCCTGTCCTGCCCGACCAGCCCGGGCCGGACCGCCCCACGGCGAACAGCCCCACGGCGGAGGGCCCAGCGGCGGATCAGGTGGCGGCGGACCGACCCTCATGGGGCGCGAAGTGGGCGGAGCGGCAACCACCTGCGGGGCACTGGACGGCACACCCCGGCGACGCACCCGCGCCACCACCCGCCCCGCCGACGGGCCCGGCGGGGCCGGGCGGTCCAGCAGGCCCTGCCTCGTACGGAAGTTGGGGGGCCGGCTGGACTCAGCCGCCGCCCGTACCCCGGCCCGGTGTCATCCCGCTACGGCCCCTGAGCGTCGGCGAAATCCTCGACGGGGCGGTGTCCGCCCTGCGCGCCCACTGGCGGCCGGTGCTCGGCGTGTCCCTTGCCGTCGCCCTCGTCACCCATGCCGTGACCACGGCCGCCACGGGACTGTGGTTCCGGGACACGAGCGGGCTCGACTCGCTTGAGAACGACCCGAATCC (double strand) [Psbi_06494/5]	binds
GCGCCAGGCGAGATGGACGGCGCTGTCGAGCACCGGCCATGCGCCGCTGGCCAAAAGCGCGGCGAATTCGCTCCAGCCGTGATCGTGGAGCGCGTTGTACGTGATGATCGGGGCCACGACGTTGAGGGCGATGGTGACAGCCCAGCCGAGGACGGCGGCGCCCCTGGACCGGGCGGGCGGCACCGGGCGTTCGTCCGGCCGTGCCGGCCGTGTGTCGGGCCGCGCCGGCGGCGTGTTGGGTGCGCCCTGTGCGGTGGTGTCCTGACCAGTCACGGTTCCCCCCGTAAGACGTGCTCGATGGTGCGGGAAGAAGACTAGTACAGGGGGGGACGGGAGCGCGGCGGGCGCCAGTATCGGTTCGCGCTGTCCGGTCCTGCGGCACTTCCCGTCGGCTTTTGTTGAAATTCCCCTCACAGCGCATCCGGCTAATGCGCCAACGTAATCGCTTTGCTTCTTCGGGAAACCCCAGCAAAATGGCGGTCATTGGGCTCATCCTGTAAGGAGCACTGGTTTGCATTTCAGCGTATTGGGTCCGCTTCAGGTGCTTTCACTCGACCGGCCCGTCACCATTGGCGGCCCGAAGCAGCACGTACTGCTCGCGCTGCTGCTCGCTCGTTCCG (double strand) [Psbi_09158]	binds
GGCAGGACGGCGTTCTCGCCCGCGCGCAGCAGGCGCCAGAACGCCTCGGGATCGGGTGCGCCGGGCAGCCGGCAGGCCAGCCCCACGATCGCGACGGGAGACGTCGCCTGCTGCGCGTGGCTCGGGCTGCTCCCGGCCATGACACCCCCATACCTGAATCGCAAAACCGCTGGTTATGGCTTACGAGATGCCCCGAACAGCGCTCATTCTCCGAATGATTTCTAAAGTTGATCTAACCGAGAATGTCTAGGGAGCGCCTTGTATACGCCGGGCGAAACTTGCCCCGGTGATCCTTCGGATCGAACTGGTGACCTGGGGGGATCGCTACCGAAACTGCGGGGTACGGCGACGGTCACTGATCGACGAATCCTGATATGTACCCATCTGGTTGTGGGTCTTTTGACCCTCACACTGGCGCGCGCCGCACGGTTAGGATGCGTTGATGTTGCCCTCTCTGCGATCATTGCTGCTGGTTGTTCGCCCAATGGAGGGGACCGCGGCCCGTGGTGCCGAGCGTAGTTCGGCACCATGAGTCGGTGCAGCCGCCGATCGCAGAGCAACGCCGTCGATCTCCATGGCCGGAAGACCACCTCCCACCTGACTGAAAATCTCACTGGGGGCAATGTTGCAGCCGTGTGAAATGCGCGGATGCGGCTGCGATCTGGCTAAGCTGTTGATGGCGTGGGTAGGCAACGACGCTGAGGTCTGAAGCGCGACCAAAAAGGCTTCCAAAATCGGGGTGAATTTTTCGAATGCTGGCTGAATTCGATCAAAATGGAGAGCCCTCCTGGTTCGACAAGACGCTGGCAACGGGGGGAGTTCGCGTATCATGAGGTACGAGATACTGGGCCCGTTGCGCGTGGTTGACCGATCTTCGGTCACCTCAATCAGCGCCCGGAAGATCGAGGTGCTGCTGGCCGCATTACTCGTGCGGGCCGACGAGGTGGTGAGCAGCGAAGA (double strand) [PnanR1R2 (sbi_08420)]	binds

Protein sequences can lack the tags named with them.
